According to PMC12670160, “A drug-repurposing screen of FDA- and EMA-approved drugs identifies two NF-κB inhibitors active against eumycetoma” (Journal of Antimicrobial Chemotherapy, 2025):
Where a name gives a salt, the structure may show the parent alone. The campaign covered roughly 5,300 compounds. About 130 (2.5%) showed an effect of 50% or more. This is one part of the list.

tested on: M. mycetomatis strain mm55; conditions: primary screen, metabolic activity vs growth control; 96 h, 2 µM; inhibitor

| SMILES | % viability [%] |
| --- | --- |
| CCc1cccc2c3c([nH]c12)C(CC)(CC(=O)O)OCC3 (stereo not drawn) [ONC0003226, etodolac] | 127.6 |
| Cc1noc(NS(=O)(=O)c2ccc(N)cc2)c1C [ONC0000473, sulfisoxazole] | 62.85 |
| Cc1nc(N)sc1-c1ccnc(Nc2ccc(N3CCOCC3)cc2)n1 [ONC0004675, cyc116] | 105 |
| O=C(OCCN1CCOCC1)c1cccnc1Nc1cccc(C(F)(F)F)c1 [ONC0003393, morniflumate] | 98.78 |
| CN(C)CCCO[C@@H]1[C@H]2OC(C)(C)O[C@H]2O[C@@H]1[C@H](O)CO [ONC0002945, amiprilose] | 76.31 |
| C[C@]12CC[C@@H]3c4ccc(O)cc4CC[C@H]3[C@@H]1C[C@@H](O)[C@@H]2O [ONC0000740, estriol] | 68 |
| CC(=O)NC1CCSC1=O (stereo not drawn) [ONC0003132, citiolone] | 73.4 |
| CC1=C(CC(=O)O)c2cc(F)ccc2/C1=C\c1ccc([S+](C)[O-])cc1 (stereo not drawn) [ONC0000584, sulindac] | 106.5 |
| CC(Oc1c(Cl)cccc1Cl)C1=NCCN1 (stereo not drawn) [ONC0002828, lofexidine hydrochloride] | 114.1 |
| Cc1cc(-c2cc(O)ccc2Cl)cc2nnc(Nc3ccc(OCCN4CCCC4)cc3)nc12 [ONC0000917, tg 100572 hydrochloride] | 85.74 |
| C=CC(=O)Nc1ccc2ncnc(Nc3ccc(OCc4cccc(F)c4)c(Cl)c3)c2c1 [ONC0004965, ast1306] | 81.71 |
| O=C(O)c1ccc(/C=C2/SC(=S)N(c3cccc(C(F)(F)F)c3)C2=O)cc1 [ONC0002610, cftrinh172] | 70.31 |
| C=CC(=O)N1CCC[C@@H](n2nc(-c3ccc(Oc4ccccc4)cc3)c3c(N)ncnc32)C1 [ONC0005245, pci32765 ibrutinib] | 175 |
| O=C1N=C(N2CCOCC2)CN1c1ccc(Cl)cc1 [ONC0002463, imepitoin] | 85.78 |
| CC(=O)N1CCN(CCOc2ccc(C3CCN(C4=Nn5c(nnc5C(F)(F)F)CC4)CC3)cc2)CC1 [ONC0004456, azd3514] | 126.2 |
| O=C(O)c1ccccc1C(=O)Nc1ccc(-c2ccccc2)cc1 [ONC0001695, kartogenin] | 57.41 |
| O=C(NC(O)C(Cl)(Cl)Cl)NC(O)C(Cl)(Cl)Cl (stereo not drawn) [ONC0002412, dicloralurea] | 111.8 |
| O=C1N(c2ccccc2)c2ccccc2C1(Cc1ccncc1)Cc1ccncc1 [ONC0001627, linopirdine] | 73.45 |
| CC1CCC2C(C)(C)C3CC12CCC3(C)O (stereo not drawn) [ONC0003809, cedrol] | 64.15 |
| COc1c(OCCCN2CCOCC2)ccc2c1N=C(NC(=O)c1cnc(N)nc1)N1CCN=C21 [ONC0000873, copanlisib] | 88.34 |
| CC(C)COC(=O)c1ccc(N)cc1 [ONC0002977, isobutamben] | 68.2 |

Gathered by group: those above with a CF3 group.

| SMILES | % viability [%] |
| --- | --- |
| O=C(OCCN1CCOCC1)c1cccnc1Nc1cccc(C(F)(F)F)c1 [ONC0003393, morniflumate] | 98.78 |
| O=C(O)c1ccc(/C=C2/SC(=S)N(c3cccc(C(F)(F)F)c3)C2=O)cc1 [ONC0002610, cftrinh172] | 70.31 |
| CC(=O)N1CCN(CCOc2ccc(C3CCN(C4=Nn5c(nnc5C(F)(F)F)CC4)CC3)cc2)CC1 [ONC0004456, azd3514] | 126.2 |

(next part)

| SMILES | % viability [%] |
| --- | --- |
| Cc1ccccc1N1C(=O)c2cc(S(N)(=O)=O)c(Cl)cc2NC1C (stereo not drawn) [ONC0005510, metolazone] | 74.76 |
| O=C(O)CNC(=O)c1ccccc1I [ONC0003784, 2iodohippuricacid] | 136.6 |
| Cc1cc(-n2c(=O)[nH]c(=O)n(C)c2=O)ccc1Oc1ccc(SC(F)(F)F)cc1 [ONC0004051, toltrazuril] | 117.7 |
| O=[N+]([O-])c1cnc(Sc2nnc(O)n2-c2ccc3c(c2)OCCO3)s1 [ONC0000158, bi78d3] | 83.73 |
| C=CC1=C(C(=O)O)N2C(=O)[C@@H](NC(=O)/C(=N\OCC(=O)O)c3csc(N)n3)[C@H]2SC1 [ONC0005545, cefixime] | 131.1 |
| CN1C(=O)CCS(=O)(=O)C1c1ccc(Cl)cc1 (stereo not drawn) [ONC0003875, chlormezanone] | 63.41 |
| CCS(=O)(=O)N(Cc1cccnc1)c1cccc(-c2ccc(C#N)cc2)c1 [ONC0001620, cbipes] | 66.8 |
| C[C@]12CCC(=O)C[C@@H]1CC[C@@H]1[C@@H]2CC[C@]2(C)C=CC[C@@H]12 [ONC0002090, 5androstenone] | 72.4 |
| OCCOCCN1CCN(C(c2ccccc2)c2ccc(Cl)cc2)CC1 (stereo not drawn) [ONC0000576, hydroxyzine pamoate] | 125.6 |
| C[C@@H]1CC2C3CCC4=CC(=O)C=C[C@]4(C)[C@@]3(F)[C@@H](O)C[C@]2(C)[C@H]1C(=O)CO (stereo partly drawn) [ONC0004115, desoxymetasone] | 133.2 |
| Cc1cc(CCCOc2c(C)cc(-c3noc(C(F)(F)F)n3)cc2C)on1 [ONC0004271, pleconaril] | 89.31 |
| COc1ccc(CNC(=O)Nc2ncc([N+](=O)[O-])s2)cc1 [ONC0000879, ara014418] | 83.72 |
| O=C(NS(=O)(=O)c1ccc(Br)s1)c1ccc(Cl)cc1Cl [ONC0005127, tasisulam ly573636] | 83.11 |
| OC[C@H]1O[C@@](CO)(O[C@H]2O[C@H](CO)[C@@H](O)[C@H](O)[C@H]2O)[C@@H](O)[C@@H]1O [ONC0005578, sucrose] | 90.89 |
| O=S(=O)(O)CCCS(=O)(=O)O [ONC0005304, eprodisate disodium] | 61.63 |
| O=C1N[C@@H]2[C@@H](O)[C@@H](O)[C@H](O)[C@@H](CO)N2C1=O [ONC0003241, kifunensine] | 83.58 |
| COC(=O)C1=C(C)N(C)C(C)=C(C(=O)OC)C1c1ccc(C(F)(F)F)cc1 [ONC0002913, bayw9798] | 53.61 |
| NC(=S)N/N=C/c1ncccc1N [ONC0001159, triapine] | 70.16 |
| CCCCCCCCCCCCCCCCCCCCCCCCC(=O)O [ONC0002800] | 89.28 |
| CCOC(=O)C1=CCCC[C@H]1S(=O)(=O)Nc1ccc(F)cc1Cl [ONC0002465, resatorvid] | 53.89 |
| CCCN[C@@H]1CCc2c(OC)cccc2[C@@H]1C [ONC0003107, aj76] | 71.21 |
